This is an account of results in PubChem BioAssay AID1487 (National Center for Advancing Translational Sciences (NCATS), 2009).

Some of the results follow. Further columns of the screen follow, without active or inactive calls. Compounds called inactive in the main read-out are mostly missing here. The note in brackets gives the kind of curve behind each potency; many fits are weak.

The experiment is described as follows: qHTS Assay for Modulators of Lamin A Splicing. The following applies: HeLa LMNA splicing GFP/RFP minigene ratio, 48 h. Summed up:
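Read-out is the ratio of GFP to DsRed2 object intensity, acquired by 488 nm laser-scanning cytometry on HeLa lamin A-EGFP minigene reporter cells. Compound incubation 48 hrs at 37 °C in Opti-MEM with 2% FBS; DMSO 0.5% final.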
For orientation: qHTS replaces the single test concentration by a dilution series.

Setting [1] is: measured here: GFP splicing reporter channel.
The mark [2] stands for this setting: measured here: RFP viability control channel.

For `CCOc1ccc(S(=O)(=O)N2CCC(c3ccncc3)CC2)cc1`, the concentration at half-maximal activity (AC50) under setting [1] is 1.12 µM [falling, full curve, poor fit].
Take `C=CCNC(=O)Nc1ccc(Br)cc1Cl`: the half-maximal activity concentration (AC50) by setting is: under setting [1], 0.00316 µM [rising, full curve, poor fit]; under setting [2], 15.8 µM [rising, partial curve, poor fit].
Regarding `O=S(=O)(c1cccc2nsnc12)N1CCN(C/C=C\c2ccccc2)CC1`, the AC50 under setting [2] was 22.4 µM [rising, single point].
As for `Cc1cc(C)n(-c2nc(C)c(C)c(=O)n2CC(=O)Nc2cccc([N+](=O)[O-])c2)n1`, under setting [1], the concentration at half-maximal activity (AC50) is 0.00447 µM [rising, full curve, poor fit].
Regarding `Cc1cccc(NCc2nnc(-c3ccccc3)o2)c1C`, the AC50 under setting [2] was 1.58 µM [falling, partial curve, poor fit].
As for `CCCCCCCCCCCCCCCCCC(=O)OC(CC(=O)O)C[N+](C)(C)C` (configuration not stated), the AC50 runs as follows: under setting [1], 20 µM [falling, partial curve]; under setting [2], 11.2 µM [falling, partial curve].
In the case of `COc1ccc(N2CCN(C(CNC(=O)c3ccco3)c3cccnc3)CC2)cc1` (configuration not stated), the AC50 is, setting by setting: under setting [1], 20 µM [rising, partial curve, poor fit]; under setting [2], 14.1 µM [rising, single point].
Regarding `CCOc1ccc(N(C(=O)/C=C/C(=O)Nc2cc(C)on2)C(C(=O)NC2CCCC2)c2ccccc2C)cc1` (configuration not stated), the concentration at half-maximal activity (AC50) was 35.5 µM [falling, single point] under setting [1] and 35.5 µM [falling, single point] under setting [2].
Regarding `Cc1cc(Nc2ccc(Br)c(C)c2)n2nc(-c3ccco3)nc2n1`, the AC50 runs as follows: under setting [1], 12.6 µM [falling, partial curve]; under setting [2], 35.5 µM [falling, single point].
For `NC(=NCCc1ccccc1)NS(=O)(=O)c1ccc2ccccc2c1`, the AC50 is 8.91 µM [rising, partial curve, poor fit] under setting [1] and 12.6 µM [rising, partial curve, poor fit] under setting [2].
In the case of `CN(CC(=O)Nc1cc([N+](=O)[O-])ccc1Cl)Cc1ccc(Br)cc1`, the half-maximal activity concentration (AC50) under setting [2] is 35.5 µM [rising, single point].
Take `O=C1N/C(=C\c2ccc(O)cc2)C(=O)c2ccccc21`: the AC50 is 35.5 µM [falling, single point] under setting [1] and 31.6 µM [falling, single point] under setting [2].
In the case of `CCOc1ccccc1OCc1nn2c(-c3ccc(C)cc3)nnc2s1`, the AC50 under setting [2] was 12.6 µM [rising, single point].
In the case of `O=C(CSc1nnnn1-c1ccc2c(c1)OCCO2)Nc1nc2c(s1)CCCC2`, the AC50 is 2.51 µM [rising, full curve, poor fit] under setting [1] and 6.31 µM [rising, partial curve] under setting [2].

The AC50 is the concentration giving half of the maximal activity seen.
